Among the data in publication PMC7819943, “Rice protein-binding microarrays: a tool to detect cis-acting elements near promoter regions in rice” are binding signal values, retold here.

By UniProt entry, the sequences of proteins in these tests, tags left out.
UniProt Q0JBA9, entry or part of it: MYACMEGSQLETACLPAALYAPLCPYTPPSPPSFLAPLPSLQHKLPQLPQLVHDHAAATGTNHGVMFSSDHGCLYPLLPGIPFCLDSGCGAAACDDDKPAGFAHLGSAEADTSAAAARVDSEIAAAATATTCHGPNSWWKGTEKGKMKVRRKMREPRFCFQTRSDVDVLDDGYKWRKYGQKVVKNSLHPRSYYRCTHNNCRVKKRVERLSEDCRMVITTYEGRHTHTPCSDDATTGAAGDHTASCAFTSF

The other results are listed elsewhere or left out.

The experiment deals with OsWRKY34 (Oryza sativa, UniProt Q0JBA9 1-250). The experiment in a line: protein-binding microarray (RPBM); PBS, 2% BSA, 51.3 ng/ul salmon testes DNA, 50 uM zinc acetate, 200 nM TF, 25 C, 1 h; high values mean tight binding. As to conditions: protein: recombinant; tags: N-terminal polyhistidine and DsRed monomer fusion (pET32a); label: CyDye5-dUTP incorporated in the synthesized complementary strand; 3' TTTTT single-stranded linker to array surface; dsDNA, one strand shown. Put shortly:
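The binding signal is fluorescence intensity per feature, in arbitrary units, read on an Axon 4000B scanner. Polyhistidine- and DsRed-tagged transcription factors (N-terminal fusions) from E. coli BL21-CodonPlus were purified on Ni–NTA and applied at 200 nM for 1 h at 25 °C to a double-stranded, BSA-blocked custom Agilent array in buffer with 50 µM zinc acetate.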
Consider “CAATCCCTCCTTGGACTCCGGCCACGATCAGCTCCTCGGCCGGAGTCACCTAGTGCAG”, for which the binding signal was 8310 fluorescence intensity (a.u.).
As for “GGGAGAGGGGTGTGGGGCGGAGAGGGAGAGGGAGATGGGACGGAGTCACCTAGTGCAG”, the binding signal is 9680 fluorescence intensity (a.u.).
Regarding “GTGGAGCTATACCTTCTACTCTCAGCAATTGTCCTTTAGACGGAGTCACCTAGTGCAG”, the binding signal was 9460 fluorescence intensity (a.u.).
Consider “AGGGTCGAGAGTTACAATTATGCATGTGTATCTATGTGTTCGGAGTCACCTAGTGCAG”, for which the binding signal was 8310 fluorescence intensity (a.u.).
The result for “CCCTCCACATGACATCACCCCTCGCGCGGCTGCTGCTCTCCGGAGTCACCTAGTGCAG” reads 8420 fluorescence intensity (a.u.); that for “CGCTTTTGGGCAGCAAGGCAAGAATATTACTTGCCTTCCACGGAGTCACCTAGTGCAG”, 9460 fluorescence intensity (a.u.); that for “GATCAATTGTTGTCGGTGATCATACATTGTCTGTCTTGGACGGAGTCACCTAGTGCAG”, 8030 fluorescence intensity (a.u.).
Take “GGATTGGTATCGTTTCGACTTGATAAAATCATAGTATTATCGGAGTCACCTAGTGCAG”: the binding signal is 8460 fluorescence intensity (a.u.).
The result for “TTACTTGCTATTGTGATACAAGGTATTTTGCCAATCATCTCGGAGTCACCTAGTGCAG” reads 8520 fluorescence intensity (a.u.); that for “TGGTTGCACGCGATTTAATTATGCTTGTTTTATTACTTCACGGAGTCACCTAGTGCAG”, 10100 fluorescence intensity (a.u.); that for “AGCCGATAAATCAAGCGCCCGCTTTTCTCTTTCCTTGCATCGGAGTCACCTAGTGCAG”, 8190 fluorescence intensity (a.u.).
For “GCTCACAGCTCGCTCACTCGCTCTCCTCTTCCAACCAACTCGGAGTCACCTAGTGCAG”, the binding signal is 8560 fluorescence intensity (a.u.).
Regarding “TTTTCCTCCGGCGACTGTTATACTCTGGCCACTTCCTTCCCGGAGTCACCTAGTGCAG”, the binding signal is 9530 fluorescence intensity (a.u.).
The result for “TTCTCTTGCCCCATACCCACACCCACCATATCTAAATACTCGGAGTCACCTAGTGCAG” reads 8250 fluorescence intensity (a.u.).
“TTAAGCAGTAAAGTGGGTAGTTTTCAATAGTTTAGAGGATCGGAGTCACCTAGTGCAG”: the binding signal was 8500 fluorescence intensity (a.u.).
As to “TCTAGTTATTTTACACGTTATTTTTTTTGTTATCATATTACGGAGTCACCTAGTGCAG”, the binding signal was 12600 fluorescence intensity (a.u.).
Take “TCTATGCTTGCTTTGTCCTCGAAACTAACTGCCATTCTGCCGGAGTCACCTAGTGCAG”: the binding signal is 8280 fluorescence intensity (a.u.).
Under “AGAGGAGGAAGAAGAGGAGGGGTGACAATGATATGTGGGGCGGAGTCACCTAGTGCAG” stands 10100 fluorescence intensity (a.u.); under “TGGGTGGGGATGAAGTGTGGAAGTGGCATATCTTTATCCACGGAGTCACCTAGTGCAG”, 8320 fluorescence intensity (a.u.); under “ACTGGCCAATATCCCCAACTTTTCTTCTTTTTTTTCTTTCCGGAGTCACCTAGTGCAG”, 9610 fluorescence intensity (a.u.).
For the sequence “GGGGTATGAGGAGGTGGGGCGACGTGGGACGTAGCTGGGTCGGAGTCACCTAGTGCAG”, the binding signal was 9390 fluorescence intensity (a.u.).
With “GATCTGCATGAAATGCGCTGGCCACATTTGTCGTTGTCACCGGAGTCACCTAGTGCAG”, the binding signal is 8750 fluorescence intensity (a.u.).
On to “AACTACGCGTTCAATCCATGTTTCATCACATTAAGGTTCCCGGAGTCACCTAGTGCAG”, for which the binding signal was 11800 fluorescence intensity (a.u.).
